The target in this assay is T1, GIGYF2 (human (endogenous in Calu-3, HEK293T, HEK293T-ACE2)) (UniProt Q6Y7W6).
T1 sequence: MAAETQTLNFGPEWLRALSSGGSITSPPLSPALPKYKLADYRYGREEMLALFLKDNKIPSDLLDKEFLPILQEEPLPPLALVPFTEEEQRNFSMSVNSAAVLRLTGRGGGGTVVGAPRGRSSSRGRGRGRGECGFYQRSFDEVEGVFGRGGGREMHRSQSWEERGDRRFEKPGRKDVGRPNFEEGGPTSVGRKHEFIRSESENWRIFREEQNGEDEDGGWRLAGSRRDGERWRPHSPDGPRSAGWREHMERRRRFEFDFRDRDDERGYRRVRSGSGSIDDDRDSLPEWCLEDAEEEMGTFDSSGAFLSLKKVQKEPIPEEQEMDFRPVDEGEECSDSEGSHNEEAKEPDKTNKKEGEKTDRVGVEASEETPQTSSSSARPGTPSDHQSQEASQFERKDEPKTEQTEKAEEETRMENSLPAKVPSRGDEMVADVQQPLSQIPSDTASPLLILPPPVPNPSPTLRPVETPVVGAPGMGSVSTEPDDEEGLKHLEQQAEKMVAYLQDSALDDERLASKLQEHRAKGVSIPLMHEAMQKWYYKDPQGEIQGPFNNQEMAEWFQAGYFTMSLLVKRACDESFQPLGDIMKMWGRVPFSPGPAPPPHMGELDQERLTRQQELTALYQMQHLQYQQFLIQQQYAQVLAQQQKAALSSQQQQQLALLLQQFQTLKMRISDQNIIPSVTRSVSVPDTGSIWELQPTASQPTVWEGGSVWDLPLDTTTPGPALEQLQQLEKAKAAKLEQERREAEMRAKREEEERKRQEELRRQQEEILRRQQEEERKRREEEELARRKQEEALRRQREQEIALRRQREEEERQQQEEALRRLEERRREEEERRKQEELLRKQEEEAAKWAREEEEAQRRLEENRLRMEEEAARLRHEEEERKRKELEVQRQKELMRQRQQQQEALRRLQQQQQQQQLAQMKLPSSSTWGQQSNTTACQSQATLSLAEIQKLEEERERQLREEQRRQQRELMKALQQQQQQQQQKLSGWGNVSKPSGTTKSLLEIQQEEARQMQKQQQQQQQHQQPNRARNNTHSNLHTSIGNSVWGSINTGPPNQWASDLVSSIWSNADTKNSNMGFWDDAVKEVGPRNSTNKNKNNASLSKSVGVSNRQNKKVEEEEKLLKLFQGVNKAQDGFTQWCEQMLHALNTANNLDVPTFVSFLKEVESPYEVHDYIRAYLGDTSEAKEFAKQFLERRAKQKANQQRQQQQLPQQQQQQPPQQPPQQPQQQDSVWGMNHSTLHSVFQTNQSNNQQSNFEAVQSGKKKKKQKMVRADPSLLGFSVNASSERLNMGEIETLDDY
In words: affinity purification with mass spectrom.

Amino acid sequences for entries named in this document (tags omitted).
UniProt O60573: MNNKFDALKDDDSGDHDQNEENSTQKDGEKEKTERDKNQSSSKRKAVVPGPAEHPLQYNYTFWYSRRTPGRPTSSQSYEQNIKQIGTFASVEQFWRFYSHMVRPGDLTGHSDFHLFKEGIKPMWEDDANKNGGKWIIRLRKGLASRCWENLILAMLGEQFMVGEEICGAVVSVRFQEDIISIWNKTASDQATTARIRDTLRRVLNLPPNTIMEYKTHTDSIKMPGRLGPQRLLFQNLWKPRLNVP

No constants are given. Whether binding was seen depends on the method and setting. Binding seen in cells or lysates may run through a third protein. Here binding means that the protein was enriched with, or labelled near, the bait; the list need not be complete.

As for eIF4E2 (from UniProt O60573 1-245), the binding result is on record as “binds”.

B1: ZNF598 (protein, UniProt Q86UK7 1-904)
chain: MAAAGGAEGRRAALEAAAAAAPERGGGSCVLCCGDLEATALGRCDHPVCYRCSTKMRVLCEQRYCAVCREELRQVVFGKKLPAFATIPIHQLQHEKKYDIYFADGKVYALYRQLLQHECPRCPELPPFSLFGDLEQHMRRQHELFCCRLCLQHLQIFTYERKWYSRKDLARHRMQGDPDDTSHRGHPLCKFCDERYLDNDELLKHLRRDHYFCHFCDSDGAQDYYSDYAYLREHFREKHFLCEEGRCSTEQFTHAFRTEIDLKAHRTACHSRSRAEARQNRHIDLQFSYAPRHSRRNEGVVGGEDYEEVDRYSRQGRVARAGTRGAQQSRRGSWRYKREEEDREVAAAVRASVAAQQQEEARRSEDQEEGGRPKKEEAAARGPEDPRGPRRSPRTQGEGPGPKETSTNGPVSQEAFSVTGPAAPGCVGVPGALPPPSPKLKDEDFPSLSASTSSSCSTAATPGPVGLALPYAIPARGRSAFQEEDFPALVSSVPKPGTAPTSLVSAWNSSSSSKKVAQPPLSAQATGSGQPTRKAGKGSRGGRKGGPPFTQEEEEDGGPALQELLSTRPTGSVSSTLGLASIQPSKVGKKKKVGSEKPGTTLPQPPPATCPPGALQAPEAPASRAEGPVAVVVNGHTEGPAPARSAPKEPPGLPRPLGSFPCPTPQEDFPALGGPCPPRMPPPPGFSAVVLLKGTPPPPPPGLVPPISKPPPGFSGLLPSPHPACVPSPATTTTTKAPRLLPAPRAYLVPENFRERNLQLIQSIRDFLQSDEARFSEFKSHSGEFRQGLISAAQYYKSCRDLLGENFQKVFNELLVLLPDTAKQQELLSAHTDFCNREKPLSTKSKKNKKSAWQATTQQAGLDCRVCPTCQQVLAHGDASSHQALHAARDDDFPSLQAIARIIT
As for B1, the binding result is given as “binds”.

For the origin of these results see article PMC12288870.
